In publication PMC6720858:
Results are given in words; binding and its absence hold for the method and conditions named. In cells and extracts the contact can be indirect. Some entries that bind do so weakly or less than the wild type.

By UniProt entry, the sequences of proteins in these tests, tags left out. Where a name states a change or a piece, a line headed by the entry shows the natural chain unless it says otherwise. Chains listed by the source or under a name are the forms on record and can include a tag or linker.
AnkB p.S646F-GFP (Q01484, form named): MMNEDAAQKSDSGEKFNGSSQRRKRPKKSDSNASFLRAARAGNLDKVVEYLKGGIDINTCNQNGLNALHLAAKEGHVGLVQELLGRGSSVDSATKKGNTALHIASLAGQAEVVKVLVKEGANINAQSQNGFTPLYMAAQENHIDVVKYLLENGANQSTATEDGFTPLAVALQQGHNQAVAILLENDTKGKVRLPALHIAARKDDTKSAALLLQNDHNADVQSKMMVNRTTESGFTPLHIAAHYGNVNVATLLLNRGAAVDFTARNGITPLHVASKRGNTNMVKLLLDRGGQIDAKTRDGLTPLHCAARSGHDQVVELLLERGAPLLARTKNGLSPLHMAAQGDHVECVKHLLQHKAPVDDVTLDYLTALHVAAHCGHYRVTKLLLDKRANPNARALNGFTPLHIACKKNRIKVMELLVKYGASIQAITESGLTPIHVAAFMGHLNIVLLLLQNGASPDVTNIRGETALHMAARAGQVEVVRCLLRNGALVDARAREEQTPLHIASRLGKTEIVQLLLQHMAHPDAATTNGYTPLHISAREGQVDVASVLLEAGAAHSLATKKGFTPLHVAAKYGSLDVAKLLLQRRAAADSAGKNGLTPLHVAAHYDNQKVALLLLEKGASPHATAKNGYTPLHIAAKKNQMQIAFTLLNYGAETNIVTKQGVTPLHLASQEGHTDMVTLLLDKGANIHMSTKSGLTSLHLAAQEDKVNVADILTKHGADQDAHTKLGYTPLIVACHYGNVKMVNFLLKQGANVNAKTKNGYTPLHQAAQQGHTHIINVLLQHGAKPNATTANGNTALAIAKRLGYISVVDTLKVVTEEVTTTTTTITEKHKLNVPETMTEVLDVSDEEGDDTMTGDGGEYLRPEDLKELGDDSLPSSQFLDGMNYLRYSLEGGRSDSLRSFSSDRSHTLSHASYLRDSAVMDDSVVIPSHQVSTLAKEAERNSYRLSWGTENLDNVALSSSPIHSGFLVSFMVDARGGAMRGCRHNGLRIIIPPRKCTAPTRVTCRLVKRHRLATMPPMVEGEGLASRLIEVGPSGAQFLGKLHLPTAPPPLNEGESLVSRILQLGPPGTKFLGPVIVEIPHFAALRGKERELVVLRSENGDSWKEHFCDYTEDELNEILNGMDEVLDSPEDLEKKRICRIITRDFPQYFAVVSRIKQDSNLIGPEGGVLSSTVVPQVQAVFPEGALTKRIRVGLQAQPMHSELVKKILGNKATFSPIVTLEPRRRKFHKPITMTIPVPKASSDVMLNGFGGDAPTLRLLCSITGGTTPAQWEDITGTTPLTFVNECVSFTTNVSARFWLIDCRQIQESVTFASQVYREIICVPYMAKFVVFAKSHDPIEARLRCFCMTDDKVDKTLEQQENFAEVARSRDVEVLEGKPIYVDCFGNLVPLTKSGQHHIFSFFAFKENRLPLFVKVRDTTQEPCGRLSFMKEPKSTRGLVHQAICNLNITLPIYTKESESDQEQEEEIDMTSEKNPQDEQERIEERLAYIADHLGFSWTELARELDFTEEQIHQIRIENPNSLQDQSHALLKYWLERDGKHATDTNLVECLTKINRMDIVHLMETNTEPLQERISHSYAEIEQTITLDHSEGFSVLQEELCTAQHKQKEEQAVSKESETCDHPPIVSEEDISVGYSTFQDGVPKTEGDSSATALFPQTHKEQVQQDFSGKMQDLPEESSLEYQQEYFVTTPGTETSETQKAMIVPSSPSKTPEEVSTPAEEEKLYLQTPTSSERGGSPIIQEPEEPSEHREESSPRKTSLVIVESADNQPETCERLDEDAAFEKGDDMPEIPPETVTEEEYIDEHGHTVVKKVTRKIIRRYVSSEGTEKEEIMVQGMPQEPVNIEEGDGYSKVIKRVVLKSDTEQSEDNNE
wildtype Ankyrin B-GFP (220 kDa AnkB isoform) (Q01484, form named): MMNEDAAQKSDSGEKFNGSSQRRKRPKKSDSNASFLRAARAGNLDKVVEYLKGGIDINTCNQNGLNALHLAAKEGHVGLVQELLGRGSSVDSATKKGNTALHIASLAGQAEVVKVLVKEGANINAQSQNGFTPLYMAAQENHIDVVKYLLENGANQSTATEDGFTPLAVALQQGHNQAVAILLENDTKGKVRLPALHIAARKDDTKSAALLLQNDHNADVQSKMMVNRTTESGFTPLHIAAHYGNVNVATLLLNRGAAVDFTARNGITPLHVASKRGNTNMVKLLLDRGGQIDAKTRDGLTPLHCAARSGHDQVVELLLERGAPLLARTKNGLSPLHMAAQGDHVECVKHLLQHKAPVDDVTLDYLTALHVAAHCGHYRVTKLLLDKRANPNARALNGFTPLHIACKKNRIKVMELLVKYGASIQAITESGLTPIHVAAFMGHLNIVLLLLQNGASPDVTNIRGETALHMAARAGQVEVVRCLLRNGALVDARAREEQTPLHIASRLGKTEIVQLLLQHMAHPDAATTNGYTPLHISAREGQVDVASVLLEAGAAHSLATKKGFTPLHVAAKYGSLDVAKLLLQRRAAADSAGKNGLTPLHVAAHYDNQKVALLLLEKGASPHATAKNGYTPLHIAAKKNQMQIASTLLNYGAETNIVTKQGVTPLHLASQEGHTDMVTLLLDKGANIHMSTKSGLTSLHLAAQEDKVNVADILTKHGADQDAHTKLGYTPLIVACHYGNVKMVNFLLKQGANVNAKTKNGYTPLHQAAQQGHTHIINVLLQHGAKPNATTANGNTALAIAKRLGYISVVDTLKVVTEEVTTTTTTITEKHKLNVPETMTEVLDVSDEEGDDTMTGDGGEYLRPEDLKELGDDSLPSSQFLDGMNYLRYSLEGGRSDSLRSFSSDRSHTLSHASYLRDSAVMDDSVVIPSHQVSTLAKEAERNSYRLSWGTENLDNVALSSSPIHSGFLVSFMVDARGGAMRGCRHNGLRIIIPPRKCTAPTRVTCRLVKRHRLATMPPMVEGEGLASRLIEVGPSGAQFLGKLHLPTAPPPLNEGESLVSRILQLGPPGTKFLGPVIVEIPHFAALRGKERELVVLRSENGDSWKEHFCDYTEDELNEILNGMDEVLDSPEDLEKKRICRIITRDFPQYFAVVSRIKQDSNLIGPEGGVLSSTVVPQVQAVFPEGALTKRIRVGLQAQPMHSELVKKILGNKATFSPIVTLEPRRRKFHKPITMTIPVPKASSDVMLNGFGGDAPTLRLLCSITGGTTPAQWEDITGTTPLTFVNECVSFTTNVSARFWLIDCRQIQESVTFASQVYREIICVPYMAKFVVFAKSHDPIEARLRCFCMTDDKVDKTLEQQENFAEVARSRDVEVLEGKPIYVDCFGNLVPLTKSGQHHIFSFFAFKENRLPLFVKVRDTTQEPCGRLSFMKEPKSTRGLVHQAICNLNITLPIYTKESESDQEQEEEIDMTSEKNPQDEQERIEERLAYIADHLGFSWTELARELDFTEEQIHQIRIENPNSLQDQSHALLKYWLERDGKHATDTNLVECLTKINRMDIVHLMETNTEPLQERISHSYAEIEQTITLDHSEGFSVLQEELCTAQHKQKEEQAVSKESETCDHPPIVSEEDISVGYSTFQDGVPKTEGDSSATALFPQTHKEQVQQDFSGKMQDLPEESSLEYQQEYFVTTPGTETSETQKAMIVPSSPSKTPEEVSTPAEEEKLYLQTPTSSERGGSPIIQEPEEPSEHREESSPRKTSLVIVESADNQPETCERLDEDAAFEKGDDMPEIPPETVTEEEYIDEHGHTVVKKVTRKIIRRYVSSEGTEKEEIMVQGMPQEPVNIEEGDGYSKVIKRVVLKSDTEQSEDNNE
AnkB p.Q879R-GFP (Q01484, form named): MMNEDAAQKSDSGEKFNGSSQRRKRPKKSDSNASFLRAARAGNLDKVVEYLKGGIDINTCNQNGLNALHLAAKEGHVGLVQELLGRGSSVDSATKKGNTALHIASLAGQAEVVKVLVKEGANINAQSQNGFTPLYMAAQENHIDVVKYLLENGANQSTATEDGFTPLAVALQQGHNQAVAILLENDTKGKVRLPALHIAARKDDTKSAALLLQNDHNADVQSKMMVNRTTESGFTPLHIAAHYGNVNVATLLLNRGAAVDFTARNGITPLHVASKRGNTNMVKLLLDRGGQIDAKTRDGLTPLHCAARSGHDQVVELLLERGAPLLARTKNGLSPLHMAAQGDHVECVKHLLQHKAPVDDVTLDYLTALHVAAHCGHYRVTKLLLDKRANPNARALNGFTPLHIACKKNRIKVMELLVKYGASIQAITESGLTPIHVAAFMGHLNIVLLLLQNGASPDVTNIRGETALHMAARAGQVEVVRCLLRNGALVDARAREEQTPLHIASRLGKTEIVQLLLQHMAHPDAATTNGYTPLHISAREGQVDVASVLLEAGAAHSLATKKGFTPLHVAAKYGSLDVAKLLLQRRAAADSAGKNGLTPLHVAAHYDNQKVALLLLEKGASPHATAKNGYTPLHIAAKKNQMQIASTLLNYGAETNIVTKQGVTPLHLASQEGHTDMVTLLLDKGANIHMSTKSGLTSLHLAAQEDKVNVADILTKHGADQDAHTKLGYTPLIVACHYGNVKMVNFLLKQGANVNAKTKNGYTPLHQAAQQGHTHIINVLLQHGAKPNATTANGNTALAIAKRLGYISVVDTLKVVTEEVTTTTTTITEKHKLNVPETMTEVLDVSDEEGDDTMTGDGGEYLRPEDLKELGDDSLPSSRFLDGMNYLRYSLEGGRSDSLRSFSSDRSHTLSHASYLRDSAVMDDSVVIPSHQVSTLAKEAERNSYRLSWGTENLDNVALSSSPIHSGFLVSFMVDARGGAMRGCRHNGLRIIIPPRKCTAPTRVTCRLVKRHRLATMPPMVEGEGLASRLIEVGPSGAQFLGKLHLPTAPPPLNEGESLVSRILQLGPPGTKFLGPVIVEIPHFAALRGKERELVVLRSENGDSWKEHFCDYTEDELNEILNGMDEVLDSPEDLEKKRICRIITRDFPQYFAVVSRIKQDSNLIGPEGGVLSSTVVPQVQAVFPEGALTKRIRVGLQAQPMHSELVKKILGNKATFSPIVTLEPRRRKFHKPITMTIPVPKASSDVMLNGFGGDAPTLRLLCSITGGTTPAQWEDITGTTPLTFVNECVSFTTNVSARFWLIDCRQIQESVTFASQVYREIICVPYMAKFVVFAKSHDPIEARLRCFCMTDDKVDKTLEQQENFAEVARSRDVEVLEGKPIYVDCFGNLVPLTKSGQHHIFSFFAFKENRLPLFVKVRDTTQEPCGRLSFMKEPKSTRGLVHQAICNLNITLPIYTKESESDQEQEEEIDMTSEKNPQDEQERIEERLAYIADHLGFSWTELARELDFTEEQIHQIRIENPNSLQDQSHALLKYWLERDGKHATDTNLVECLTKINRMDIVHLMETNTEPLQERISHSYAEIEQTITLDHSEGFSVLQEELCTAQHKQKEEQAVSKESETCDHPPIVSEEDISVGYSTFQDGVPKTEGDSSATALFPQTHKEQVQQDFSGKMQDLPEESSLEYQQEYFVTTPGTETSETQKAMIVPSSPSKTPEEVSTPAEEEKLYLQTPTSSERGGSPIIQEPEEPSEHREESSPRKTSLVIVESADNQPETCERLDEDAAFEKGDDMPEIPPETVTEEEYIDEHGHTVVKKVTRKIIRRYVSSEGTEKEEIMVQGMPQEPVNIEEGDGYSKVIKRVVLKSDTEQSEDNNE

Legend:
AnkB p.S646F-GFP (human) = AnkB p.S646F-GFP (human) (UniProt Q01484); assay: co-IP; anti-GFP antibody cross-linked to Protein G Dynabeads; lysates of HEK293T cells co-expressing Cav2.1 and wildtype or variant AnkB-GFP; 4 °C, 2 h; washed 3x in cell lysis buffer (25 mM Tris-HCl, 150 mM NaCl, 1 mM EDTA, 1% IGEPAL CA-630, 5% glycerol); Western blot
[1] = target: wildtype Ankyrin B-GFP (220 kDa AnkB isoform) (human) (UniProt Q01484); assay: as above
AnkB p.Q879R-GFP (human) = AnkB p.Q879R-GFP (human) (UniProt Q01484); assay: as above
[2] = target: AnkB p.E1458G-GFP (human) (UniProt Q01484); assay: as above
[3] = target: Ankyrin B, endogenous in P14 mouse cortex (mouse (endogenous in P14 mouse cortex)) (UniProt Q8C8R3); assay: co-IP; anti-AnkB antibody on Dynabeads (mIgG beads as control); precleared P14 mouse cortex lysate in IP buffer (150 mM NaCl, 0.32 M sucrose, 2 mM EDTA, 0.1% Triton X-100, 0.1% sodium deoxycholate, 0.1% SDS); 4 °C, 2 h; Western blot

binding (AnkB p.S646F-GFP (human)) | binding [1] | binding (AnkB p.Q879R-GFP (human)) | binding [2] | binding [3] | Substance
binds | binds | binds | binds |  | Cav2.1 (CACNA1A), pore-forming subunit of P/Q type voltage gated calcium channels, expressed from pcDNA3.1 (from UniProt P54282 1-2212)
 |  |  |  | binds | Cav2.1, endogenous in P14 mouse cortex (from UniProt P97445 1-2368)
